PubChem BioAssay AID1053208 | Peter MacCallum Cancer Centre | 2014
The deposit covers about 17,000 reagents; below is a random part of them. 788 of them (4.7%) count as active. 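Calls rest on z-score classes alone; an extra cut-off of viability at most 70% of control was not applied to them.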

Screen: 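Synthetic lethal interactions between gene loss and doxorubicin in osteosarcoma cells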 (primary screen)
System: mouse osteosarcoma cells, early-passage culture from an engineered mouse model of fibroblastic bone tumour
Reagents: siRNA pool against mouse genes, 40 nM
Timing: about 120 h (48 h before drug, then 72 h with drug)
Challenge: doxorubicin 100 nM for 72 h, roughly 30-40% inhibitory dose
Read-out: 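Viability read as ATP luminescence after 72 h of 100 nM doxorubicin or none, duplicate wells averaged, scaled to non-targeting siRNA, then expressed as robust z-scores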
Scale: viability z-score with doxorubicin and doxorubicin viability vs non-targeting: higher = more viable cells under doxorubicin; viability z-score without drug: higher = more viable cells with knock-down alone; z-score of drug to no-drug ratio: higher = less drug sensitisation by knock-down
Hit rule: 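Called active if knock-down leaves viability unchanged without drug (z within -2 to 2) but lowers it with doxorubicin (z at or under -2)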

The opening 7 records, to show the layout:
no.	Gene	combined z-score class	viability z-score with doxorubicin	viability z-score without drug	z-score of drug to no-drug ratio	doxorubicin viability vs non-targeting	Outcome
1	Pkib (GeneID 18768)	no change with or without drug	1.57	0.67	1.24	1.08	inactive
2	Cul5 (GeneID 75717)	no change with or without drug	0.9	-0.17	1.24	1.02	inactive
3	Il19 (GeneID 329244)	no change with or without drug	0.56	-0.17	0.79	0.99	inactive
4	Lcn8 (GeneID 78076)	high cell count with doxorubicin only	2.25	0.51	2.02	1.14	inactive
5	Angpt1 (GeneID 11600)	no change with or without drug	-1.12	-1.18	-0.34	0.84	inactive
6	Il36b (GeneID 69677)	no change with or without drug	-0.9	-1.52	0.22	0.86	inactive
7	Nherf1 (GeneID 26941)	no change with or without drug	0.11	-0.67	0.67	0.95	inactive

The list itself, from the start:
no.	Gene	combined z-score class	viability z-score with doxorubicin	viability z-score without drug	z-score of drug to no-drug ratio	doxorubicin viability vs non-targeting	Outcome
1	Pkib (GeneID 18768)	no change with or without drug	1.57	0.67	1.24	1.08	inactive
2	Cul5 (GeneID 75717)	no change with or without drug	0.9	-0.17	1.24	1.02	inactive
3	Il19 (GeneID 329244)	no change with or without drug	0.56	-0.17	0.79	0.99	inactive
4	Lcn8 (GeneID 78076)	high cell count with doxorubicin only	2.25	0.51	2.02	1.14	inactive
5	Angpt1 (GeneID 11600)	no change with or without drug	-1.12	-1.18	-0.34	0.84	inactive
6	Il36b (GeneID 69677)	no change with or without drug	-0.9	-1.52	0.22	0.86	inactive
7	Nherf1 (GeneID 26941)	no change with or without drug	0.11	-0.67	0.67	0.95	inactive
8	Or52h9 (GeneID 258809)	no change with or without drug	-1.12	-0.51	-0.79	0.84	inactive
9	Sh3rf2 (GeneID 269016)	no change with or without drug	-0.67	-1.01	0.11	0.88	inactive
10	Casq1 (GeneID 12372)	high cell count without drug only	0.79	2.19	-0.45	1.01	inactive
11	Henmt1 (GeneID 66715)	no change with or without drug	1.24	1.18	0.56	1.05	inactive
12	Drc3 (GeneID 74665)	no change with or without drug	0.22	1.18	-0.45	0.96	inactive
13	Thap12 (GeneID 72981)	no change with or without drug	-0.56	-0.34	-0.22	0.89	inactive
14	Slc22a29 (GeneID 236293)	no change with or without drug	0.22	0.17	0.22	0.96	inactive
15	Crybb3 (GeneID 12962)	no change with or without drug	0.67	0.84	0.22	1	inactive
16	Slc35f3 (GeneID 210027)	no change with or without drug	0.22	0.34	0.11	0.96	inactive
17	Six3os1 (GeneID 100043902)	no change with or without drug	0	0.84	-0.45	0.94	inactive
18	Gjb2 (GeneID 14619)	no change with or without drug	-0.22	-0.51	0.22	0.92	inactive
19	Clu (GeneID 12759)	no change with or without drug	0.11	-0.84	0.9	0.95	inactive
20	Cd81 (GeneID 12520)	no change with or without drug	-1.01	-1.35	0	0.85	inactive
21	Sir2l1 (GeneID 109229)	no change with or without drug	-0.34	-0.17	-0.11	0.91	inactive
22	Eif4enif1 (GeneID 74203)	no change with or without drug	0.22	1.35	-0.56	0.96	inactive
23	Gimap7 (GeneID 231932)	no change with or without drug	0.45	0.51	0.22	0.98	inactive
24	Arfip2 (GeneID 76932)	low cell count with doxorubicin only	-2.25	-1.18	-1.57	0.74	active
25	Zfp346 (GeneID 26919)	no change with or without drug	0.45	1.18	-0.22	0.98	inactive
26	Slc35a4 (GeneID 67843)	no change with or without drug	-0.22	0.34	-0.34	0.92	inactive
27	Cog8 (GeneID 97484)	no change with or without drug	-0.67	1.01	-1.24	0.88	inactive
28	Rgs2 (GeneID 19735)	no change with or without drug	0.45	-1.52	1.8	0.98	inactive
29	Med22 (GeneID 20933)	no change with or without drug	-0.79	0.17	-0.79	0.87	inactive
30	Myef2 (GeneID 17876)	no change with or without drug	0.67	0.34	0.56	1	inactive
31	Foxo4 (GeneID 54601)	no change with or without drug	0	1.01	-0.56	0.94	inactive
32	Nup42 (GeneID 231042)	no change with or without drug	0	-0.84	0.67	0.94	inactive
33	Uqcrh (GeneID 66576)	no change with or without drug	0.22	-1.85	1.8	0.96	inactive
34	Ocrl (GeneID 320634)	no change with or without drug	-0.45	-1.35	0.56	0.9	inactive
35	Oma1 (GeneID 67013)	no change with or without drug	-1.69	-0.84	-1.12	0.79	inactive
36	Dnmbp (GeneID 71972)	no change with or without drug	1.35	0.51	1.12	1.06	inactive
37	Slco5a1 (GeneID 240726)	no change with or without drug	0.9	-0.67	1.57	1.02	inactive
38	Coq7 (GeneID 12850)	no change with or without drug	1.01	1.18	0.34	1.03	inactive
39	Sephs1 (GeneID 109079)	no change with or without drug	-0.9	-0.17	-0.79	0.86	inactive
40	Bpifb5 (GeneID 228802)	no change with or without drug	0.67	0.17	0.67	1	inactive
41	Sms (GeneID 20603)	no change with or without drug	-0.22	-0.67	0.34	0.92	inactive
42	Pmfbp1 (GeneID 56523)	no change with or without drug	1.57	-0.51	2.14	1.08	inactive
43	5430439G14RIK	no change with or without drug	-0.45	0	-0.34	0.9	inactive
44	Lypd9 (GeneID 403200)	no change with or without drug	-1.12	-1.52	0	0.84	inactive
45	Iftap (GeneID 68170)	no change with or without drug	-0.22	-1.18	0.79	0.92	inactive
46	Zfp770 (GeneID 228491)	high cell count with doxorubicin only	2.02	1.01	1.46	1.12	inactive
47	Kcnb1 (GeneID 16500)	no change with or without drug	0.67	0.51	0.45	1	inactive
48	Clca1 (GeneID 23844)	low cell count with doxorubicin only	-2.47	-1.52	-1.57	0.72	active
49	Parp12 (GeneID 243771)	no change with or without drug	0.67	-0.34	1.12	1	inactive
50	Ndufa13 (GeneID 67184)	no change with or without drug	-0.9	-1.18	0	0.86	inactive
51	Mydgf (GeneID 28106)	no change with or without drug	-1.35	1.18	-2.02	0.82	inactive
52	Tmem198b (GeneID 73827)	no change with or without drug	0	-0.17	0.22	0.94	inactive
53	Tppp3 (GeneID 67971)	no change with or without drug	1.35	1.69	0.34	1.06	inactive
54	Wee2 (GeneID 381759)	no change with or without drug	-1.8	-1.18	-1.01	0.78	inactive
55	Ttl (GeneID 69737)	no change with or without drug	-1.24	-0.84	-0.67	0.83	inactive
56	Erap1 (GeneID 80898)	high cell count with and without drug	5.4	2.53	3.48	1.42	inactive
57	Tmem216 (GeneID 68642)	no change with or without drug	1.35	0.67	1.01	1.06	inactive
58	E2f3 (GeneID 13557)	no change with or without drug	1.35	1.85	0.22	1.06	inactive
59	1700067P10Rik (GeneID 68224)	high without drug; low with doxorubicin	-2.36	2.19	-3.37	0.73	inactive
60	Nmb (GeneID 68039)	no change with or without drug	-0.67	0.17	-0.67	0.88	inactive
61	Hyou1 (GeneID 12282)	no change with or without drug	-0.67	-0.17	-0.45	0.88	inactive
62	Prdm8 (GeneID 77630)	no change with or without drug	0.79	-0.84	1.57	1.01	inactive
63	Or6z6 (GeneID 258383)	no change with or without drug	1.01	0.17	1.01	1.03	inactive
